How the values were obtained:
MCF7 cells = assay: PrestoBlue cytotoxicity assay; format: cell-based, human; conditions: MCF7 breast cancer cells, 24 h treatment, linear regression
In short: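 MCF7 cells grown in EMEM with 10% FBS and 1% penicillin–streptomycin, seeded at 10,000 cells/well, then incubated 24 h at 37°C, 5% CO2. Exposed 24 h to eight concentrations from 250 to 1.95 µg/mL in three parallel experiments. Controls: cisplatin (positive), media, cells and DMSO. PrestoBlue added for 2 h; absorbance read at 570 nm against 600 nm reference. Percent growth inhibition calculated; IC50 by linear regression.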

MDA-MB-231 cells = assay: PrestoBlue cytotoxicity assay; format: cell-based, human; conditions: MDA-MB-231 breast cancer cells, 24 h treatment, linear regression
In short: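 Cells plated at 10,000 cells/well and incubated 24 h at 37°C, 5% CO2. MCF 10A were grown in MEBM to 70–80% confluency. Treated for 24 h with eight concentrations (250, 125, 62.5, 31.25, 15.625, 7.8125, 3.9, 1.95 µg/mL) in three parallel experiments, with cisplatin as positive control.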

## N.N.[Cl][Pt][Cl] [Cisplatin]
MCF7 cells
  IC50 Value MCF7: 30,08 µg/mL
MDA-MB-231 cells
  IC50 Value MDA-MB-231: 21,6 µg/mL

From article PMC11844196 (Journal of Experimental Pharmacology, 2025)
